The supplement of paper PMC12823440, “Inhibitors supercharge kinase turnover through native proteolytic circuits” (Nature, 2025)
Counter-ions that a name gives are not always drawn. Some of the results follow. The calls rarely recur for the same compound in another form.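 Kinases were expressed as nanoluciferase fusions in K562 cells and luminescence was read every 4 h between 2 and 18 h as percent of control, DMSO set to 100% and a positive control to 0%. A time point counts as decreased when the signal drops significantly (2 sigma). The hit call is the authors' own, does not follow from the count of time points alone, and its rule is not shown.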

Sequences of proteins named here, by UniProt entry; tags and fusion partners are left off. A change or cut given only in a name is not applied to a line headed by its entry.
UniProt O75460: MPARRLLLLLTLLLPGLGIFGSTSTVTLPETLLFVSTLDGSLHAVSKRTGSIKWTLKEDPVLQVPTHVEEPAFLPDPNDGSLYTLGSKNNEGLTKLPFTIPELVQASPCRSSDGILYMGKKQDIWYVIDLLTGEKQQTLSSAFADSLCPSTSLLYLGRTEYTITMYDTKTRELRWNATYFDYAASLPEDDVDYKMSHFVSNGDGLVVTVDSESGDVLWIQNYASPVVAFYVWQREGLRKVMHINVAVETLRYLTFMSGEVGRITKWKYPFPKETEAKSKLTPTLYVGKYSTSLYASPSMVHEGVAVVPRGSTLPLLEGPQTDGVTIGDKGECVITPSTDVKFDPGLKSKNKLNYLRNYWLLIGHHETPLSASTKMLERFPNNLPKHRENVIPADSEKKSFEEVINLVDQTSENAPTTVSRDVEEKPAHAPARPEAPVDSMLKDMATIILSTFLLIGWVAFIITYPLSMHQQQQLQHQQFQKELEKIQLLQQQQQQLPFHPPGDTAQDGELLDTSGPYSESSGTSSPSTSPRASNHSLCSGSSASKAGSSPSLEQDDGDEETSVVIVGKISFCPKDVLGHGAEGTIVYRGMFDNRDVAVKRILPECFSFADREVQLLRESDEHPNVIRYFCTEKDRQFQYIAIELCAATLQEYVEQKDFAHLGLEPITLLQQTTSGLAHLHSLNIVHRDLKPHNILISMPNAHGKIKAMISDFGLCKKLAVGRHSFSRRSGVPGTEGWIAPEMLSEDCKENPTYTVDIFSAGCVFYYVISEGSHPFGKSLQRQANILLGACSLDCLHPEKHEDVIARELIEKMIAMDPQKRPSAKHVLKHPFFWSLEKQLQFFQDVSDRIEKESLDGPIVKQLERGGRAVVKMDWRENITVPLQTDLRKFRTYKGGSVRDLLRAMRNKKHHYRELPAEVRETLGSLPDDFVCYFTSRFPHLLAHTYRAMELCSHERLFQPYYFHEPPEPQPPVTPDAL
UniProt P11362, whole entry, looked up: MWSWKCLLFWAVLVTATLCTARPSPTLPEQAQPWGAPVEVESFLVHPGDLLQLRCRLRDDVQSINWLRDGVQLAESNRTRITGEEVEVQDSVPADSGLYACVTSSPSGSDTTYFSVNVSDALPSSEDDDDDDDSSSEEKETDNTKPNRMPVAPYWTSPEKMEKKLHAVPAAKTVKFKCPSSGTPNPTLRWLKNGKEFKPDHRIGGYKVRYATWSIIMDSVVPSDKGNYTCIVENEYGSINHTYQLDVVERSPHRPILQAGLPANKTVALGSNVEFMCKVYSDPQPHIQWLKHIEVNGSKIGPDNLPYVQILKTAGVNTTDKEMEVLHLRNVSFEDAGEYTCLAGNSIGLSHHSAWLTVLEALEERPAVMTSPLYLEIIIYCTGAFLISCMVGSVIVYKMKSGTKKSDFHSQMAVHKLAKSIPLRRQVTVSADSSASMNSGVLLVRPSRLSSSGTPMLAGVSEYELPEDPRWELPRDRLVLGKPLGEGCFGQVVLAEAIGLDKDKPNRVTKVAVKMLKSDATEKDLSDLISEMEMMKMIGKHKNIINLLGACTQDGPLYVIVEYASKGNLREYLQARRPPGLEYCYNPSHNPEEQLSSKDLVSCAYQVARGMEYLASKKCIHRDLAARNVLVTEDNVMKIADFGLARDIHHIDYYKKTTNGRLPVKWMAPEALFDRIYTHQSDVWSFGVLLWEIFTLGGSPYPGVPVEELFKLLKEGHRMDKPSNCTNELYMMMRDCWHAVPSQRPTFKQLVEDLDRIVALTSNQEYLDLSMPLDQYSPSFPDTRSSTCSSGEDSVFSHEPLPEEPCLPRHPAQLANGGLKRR
UniProt P21802, whole entry, looked up: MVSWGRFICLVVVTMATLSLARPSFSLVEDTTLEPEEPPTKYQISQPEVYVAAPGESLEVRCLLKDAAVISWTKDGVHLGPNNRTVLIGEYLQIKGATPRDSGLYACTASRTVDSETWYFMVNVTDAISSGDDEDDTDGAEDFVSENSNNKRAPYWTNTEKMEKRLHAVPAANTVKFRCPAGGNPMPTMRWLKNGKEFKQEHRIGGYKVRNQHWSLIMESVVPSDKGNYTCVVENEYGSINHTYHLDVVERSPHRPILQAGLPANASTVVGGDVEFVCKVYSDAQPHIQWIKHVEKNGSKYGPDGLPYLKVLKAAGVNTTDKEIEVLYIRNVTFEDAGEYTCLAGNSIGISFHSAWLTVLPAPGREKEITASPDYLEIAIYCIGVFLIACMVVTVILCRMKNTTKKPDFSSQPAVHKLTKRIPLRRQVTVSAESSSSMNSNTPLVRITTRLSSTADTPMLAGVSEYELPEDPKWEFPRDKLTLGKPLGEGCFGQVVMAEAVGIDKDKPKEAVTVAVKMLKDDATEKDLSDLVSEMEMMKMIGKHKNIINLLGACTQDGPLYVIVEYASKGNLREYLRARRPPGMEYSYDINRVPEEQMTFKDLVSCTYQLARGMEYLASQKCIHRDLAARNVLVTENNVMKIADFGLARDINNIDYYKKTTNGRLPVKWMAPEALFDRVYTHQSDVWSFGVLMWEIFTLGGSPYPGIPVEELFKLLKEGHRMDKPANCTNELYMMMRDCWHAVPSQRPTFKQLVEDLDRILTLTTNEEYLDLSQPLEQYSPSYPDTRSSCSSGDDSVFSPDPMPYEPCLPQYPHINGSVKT
UniProt P22607, whole entry, looked up: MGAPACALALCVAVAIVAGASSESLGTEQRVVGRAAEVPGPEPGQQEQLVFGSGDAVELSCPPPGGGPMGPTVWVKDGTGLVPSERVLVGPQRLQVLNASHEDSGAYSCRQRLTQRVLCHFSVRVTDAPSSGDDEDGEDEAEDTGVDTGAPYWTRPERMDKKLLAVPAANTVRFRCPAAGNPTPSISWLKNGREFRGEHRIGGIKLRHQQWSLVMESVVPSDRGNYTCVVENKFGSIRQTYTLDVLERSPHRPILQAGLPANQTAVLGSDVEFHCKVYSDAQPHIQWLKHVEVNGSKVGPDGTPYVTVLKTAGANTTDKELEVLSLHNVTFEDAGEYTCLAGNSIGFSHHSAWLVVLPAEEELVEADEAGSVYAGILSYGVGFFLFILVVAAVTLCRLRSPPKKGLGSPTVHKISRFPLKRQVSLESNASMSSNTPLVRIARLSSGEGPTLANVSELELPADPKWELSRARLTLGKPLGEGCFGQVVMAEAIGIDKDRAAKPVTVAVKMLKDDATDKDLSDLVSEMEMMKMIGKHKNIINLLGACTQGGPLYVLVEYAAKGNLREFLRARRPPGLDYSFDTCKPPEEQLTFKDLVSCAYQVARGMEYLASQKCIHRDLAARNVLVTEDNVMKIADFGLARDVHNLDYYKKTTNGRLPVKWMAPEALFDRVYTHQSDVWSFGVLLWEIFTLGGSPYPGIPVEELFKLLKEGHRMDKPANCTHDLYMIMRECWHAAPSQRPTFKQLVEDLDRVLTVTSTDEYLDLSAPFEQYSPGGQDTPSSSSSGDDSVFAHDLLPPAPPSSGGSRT
UniProt P06241, whole entry, looked up: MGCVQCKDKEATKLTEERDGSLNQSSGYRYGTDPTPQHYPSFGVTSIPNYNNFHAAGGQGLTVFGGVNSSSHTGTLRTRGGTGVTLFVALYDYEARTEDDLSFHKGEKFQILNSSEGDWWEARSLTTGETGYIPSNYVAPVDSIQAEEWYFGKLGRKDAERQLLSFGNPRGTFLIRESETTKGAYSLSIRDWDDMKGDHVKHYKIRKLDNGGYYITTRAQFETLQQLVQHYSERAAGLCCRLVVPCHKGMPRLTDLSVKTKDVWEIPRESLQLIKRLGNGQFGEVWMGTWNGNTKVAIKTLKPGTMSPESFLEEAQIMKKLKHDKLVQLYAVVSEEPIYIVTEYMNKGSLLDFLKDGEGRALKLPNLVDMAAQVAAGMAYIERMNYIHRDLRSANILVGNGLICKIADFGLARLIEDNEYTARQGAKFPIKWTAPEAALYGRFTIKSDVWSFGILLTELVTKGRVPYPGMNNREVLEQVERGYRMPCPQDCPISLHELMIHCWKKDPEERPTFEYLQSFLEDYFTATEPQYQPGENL
UniProt P49840: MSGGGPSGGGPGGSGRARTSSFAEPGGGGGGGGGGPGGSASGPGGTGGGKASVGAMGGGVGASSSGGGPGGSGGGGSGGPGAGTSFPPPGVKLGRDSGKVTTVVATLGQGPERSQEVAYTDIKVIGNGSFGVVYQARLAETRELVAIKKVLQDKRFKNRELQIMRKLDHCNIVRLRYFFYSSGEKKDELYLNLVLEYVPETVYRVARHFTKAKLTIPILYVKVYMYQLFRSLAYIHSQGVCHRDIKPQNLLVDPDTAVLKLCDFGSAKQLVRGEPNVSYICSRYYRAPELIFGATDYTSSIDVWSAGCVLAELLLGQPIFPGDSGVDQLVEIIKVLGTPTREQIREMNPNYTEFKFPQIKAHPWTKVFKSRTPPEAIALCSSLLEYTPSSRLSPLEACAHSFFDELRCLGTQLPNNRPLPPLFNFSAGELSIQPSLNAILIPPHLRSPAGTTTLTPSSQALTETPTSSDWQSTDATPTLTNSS
UniProt P14616: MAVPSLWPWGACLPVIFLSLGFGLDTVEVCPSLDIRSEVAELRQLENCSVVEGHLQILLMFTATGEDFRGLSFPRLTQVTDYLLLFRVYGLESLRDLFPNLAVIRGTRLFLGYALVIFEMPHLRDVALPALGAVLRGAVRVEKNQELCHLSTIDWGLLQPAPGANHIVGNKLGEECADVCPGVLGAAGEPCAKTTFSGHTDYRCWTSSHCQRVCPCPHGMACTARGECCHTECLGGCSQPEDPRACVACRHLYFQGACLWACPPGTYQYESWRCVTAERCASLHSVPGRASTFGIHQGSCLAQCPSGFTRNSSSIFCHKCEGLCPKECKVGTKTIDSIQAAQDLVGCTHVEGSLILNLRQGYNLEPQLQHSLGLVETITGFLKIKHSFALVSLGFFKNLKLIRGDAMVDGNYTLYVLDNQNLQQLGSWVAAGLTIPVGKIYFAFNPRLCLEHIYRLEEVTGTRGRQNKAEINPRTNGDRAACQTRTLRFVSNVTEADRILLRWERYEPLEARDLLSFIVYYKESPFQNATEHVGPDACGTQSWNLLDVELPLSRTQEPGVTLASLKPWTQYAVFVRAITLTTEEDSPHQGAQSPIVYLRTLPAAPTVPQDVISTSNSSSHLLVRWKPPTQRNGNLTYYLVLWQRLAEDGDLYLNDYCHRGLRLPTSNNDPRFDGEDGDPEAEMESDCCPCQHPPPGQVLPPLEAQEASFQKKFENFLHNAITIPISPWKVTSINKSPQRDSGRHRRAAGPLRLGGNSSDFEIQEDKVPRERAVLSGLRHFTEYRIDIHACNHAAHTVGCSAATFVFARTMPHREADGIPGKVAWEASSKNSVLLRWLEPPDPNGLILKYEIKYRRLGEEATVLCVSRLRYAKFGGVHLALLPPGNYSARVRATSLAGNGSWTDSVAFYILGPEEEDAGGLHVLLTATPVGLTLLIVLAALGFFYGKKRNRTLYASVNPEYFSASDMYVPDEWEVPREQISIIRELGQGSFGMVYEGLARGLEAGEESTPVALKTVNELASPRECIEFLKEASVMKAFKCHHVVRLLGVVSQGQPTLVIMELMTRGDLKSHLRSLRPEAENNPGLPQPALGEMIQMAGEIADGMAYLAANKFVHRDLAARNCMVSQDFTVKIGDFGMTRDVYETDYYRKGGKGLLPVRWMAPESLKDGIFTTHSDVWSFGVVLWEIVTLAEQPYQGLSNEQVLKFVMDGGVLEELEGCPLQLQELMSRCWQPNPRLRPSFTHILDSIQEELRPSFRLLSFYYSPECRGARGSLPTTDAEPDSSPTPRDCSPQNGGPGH

Columns and labels:
Assay in all cases: kinase-Nluc reporter destabilization hit call (1 = scored as downregulated) (binary); higher = compound decreases kinase abundance
Details in all cases: K562, 2-18 h
EGFR = EGFR (UniProt P00533)
EGFR_G719S = EGFR_G719S (UniProt P00533)
EGFR_G719S_T790M = EGFR_G719S_T790M (UniProt P00533)
EGFR_L718V = EGFR_L718V (UniProt P00533)
EGFR_L858R = EGFR_L858R (UniProt P00533)
EGFR_L861Q = EGFR_L861Q (UniProt P00533)
EGFR_T790M = EGFR_T790M (UniProt P00533)
EPHA2 = EPHA2 (UniProt P29317)
ERBB3 = ERBB3 (UniProt P21860)
[1] = target: ERBB4_R711C (clone: ERBB4_mut) (UniProt Q15303)
ERN1 = ERN1 (UniProt O75460)
FGFR1 = FGFR1 (UniProt P11362)
FGFR2 = FGFR2 (UniProt P21802)
FGFR3 = FGFR3 (UniProt P22607)
FGR = FGR (UniProt P09769)
FLT3 = FLT3 (UniProt P36888)
FYN = FYN (UniProt P06241)
GSK3A = GSK3A (UniProt P49840)
HER2 = HER2 (UniProt P04626)
INSRR = INSRR (UniProt P14616)

Measured: kinase-Nluc reporter destabilization hit call

COc1cc2nccc(Oc3ccc(NC(=O)C4(C(=O)Nc5ccc(F)cc5)CC4)cc3)c2cc1OC [Cabozantinib (S-malate)]
inactive: EGFR; 10 µM 0 | EGFR_G719S; 10 µM 0 | EGFR_G719S_T790M; 10 µM 0 | EGFR_L718V; 10 µM 0 | EGFR_L858R; 10 µM 0 | EGFR_L861Q; 10 µM 0 | EGFR_T790M; 10 µM 0 | EPHA2; 10 µM 0 | ERBB3; 10 µM 0 | [1]; 10 µM 0 | ERN1; 10 µM 0 | FGFR1; 10 µM 0 | FGFR2; 10 µM 0 | FGFR3; 10 µM 0 | FGR; 10 µM 0 | FLT3; 10 µM 0 | FYN; 10 µM 0 | GSK3A; 10 µM 0 | HER2; 10 µM 0 | INSRR; 10 µM 0

C[S+]([O-])c1ccc(-c2nc(-c3ccc(F)cc3)c(-c3ccncc3)[nH]2)cc1 (stereo not given)
inactive: EPHA2; 10 µM 0 | ERBB3; 10 µM 0 | [1]; 10 µM 0 | ERN1; 10 µM 0 | FGFR1; 10 µM 0 | FGFR2; 10 µM 0 | FGFR3; 10 µM 0 | FGR; 10 µM 0 | FLT3; 10 µM 0 | FYN; 10 µM 0 | GSK3A; 10 µM 0 | HER2; 10 µM 0 | INSRR; 10 µM 0

C#Cc1cccc(Nc2ncnc3cc(OCCOC)c(OCCOC)cc23)c1 [Erlotinib (Hydrochloride)]
active: FGFR2; 10 µM 1
inactive: EPHA2; 10 µM 0 | ERBB3; 10 µM 0 | [1]; 10 µM 0 | ERN1; 10 µM 0 | FGFR1; 10 µM 0 | FGFR3; 10 µM 0 | FGR; 10 µM 0 | FLT3; 10 µM 0 | FYN; 10 µM 0 | GSK3A; 10 µM 0 | HER2; 10 µM 0 | INSRR; 10 µM 0

COc1ccc(S(=O)(=O)Nc2ccccc2CN(C)C/C=C/c2ccc(Cl)cc2)cc1 [KN-92 (hydrochloride)]
inactive: EGFR; 2.5 µM 0 | EGFR_G719S; 2.5 µM 0 | EGFR_G719S_T790M; 2.5 µM 0 | EGFR_L718V; 2.5 µM 0 | EGFR_L858R; 2.5 µM 0 | EGFR_L861Q; 2.5 µM 0 | EGFR_T790M; 2.5 µM 0 | EPHA2; 2.5 µM 0 | ERBB3; 2.5 µM 0 | [1]; 2.5 µM 0 | ERN1; 2.5 µM 0 | FGFR1; 2.5 µM 0 | FGFR2; 2.5 µM 0 | FGFR3; 2.5 µM 0 | FGR; 2.5 µM 0 | FLT3; 2.5 µM 0 | FYN; 2.5 µM 0 | GSK3A; 2.5 µM 0 | HER2; 2.5 µM 0 | INSRR; 2.5 µM 0

Taken from the entries so far (three entries):
COc1cc2nccc(Oc3ccc(NC(=O)C4(C(=O)Nc5ccc(F)cc5)CC4)cc3)c2cc1OC [Cabozantinib (S-malate)]
inactive: EGFR; 10 µM 0 | EGFR_G719S; 10 µM 0 | EGFR_G719S_T790M; 10 µM 0 | EGFR_L718V; 10 µM 0 | EGFR_L858R; 10 µM 0 | EGFR_L861Q; 10 µM 0 | EGFR_T790M; 10 µM 0 | EPHA2; 10 µM 0 | ERBB3; 10 µM 0 | [1]; 10 µM 0 | ERN1; 10 µM 0 | FGFR1; 10 µM 0 | FGFR2; 10 µM 0 | FGFR3; 10 µM 0 | FGR; 10 µM 0 | FLT3; 10 µM 0 | FYN; 10 µM 0 | GSK3A; 10 µM 0 | HER2; 10 µM 0 | INSRR; 10 µM 0

C[S+]([O-])c1ccc(-c2nc(-c3ccc(F)cc3)c(-c3ccncc3)[nH]2)cc1 (stereo not given)
inactive: EPHA2; 10 µM 0 | ERBB3; 10 µM 0 | [1]; 10 µM 0 | ERN1; 10 µM 0 | FGFR1; 10 µM 0 | FGFR2; 10 µM 0 | FGFR3; 10 µM 0 | FGR; 10 µM 0 | FLT3; 10 µM 0 | FYN; 10 µM 0 | GSK3A; 10 µM 0 | HER2; 10 µM 0 | INSRR; 10 µM 0

C#Cc1cccc(Nc2ncnc3cc(OCCOC)c(OCCOC)cc23)c1 [Erlotinib (Hydrochloride)]
active: FGFR2; 10 µM 1
inactive: EPHA2; 10 µM 0 | ERBB3; 10 µM 0 | [1]; 10 µM 0 | ERN1; 10 µM 0 | FGFR1; 10 µM 0 | FGFR3; 10 µM 0 | FGR; 10 µM 0 | FLT3; 10 µM 0 | FYN; 10 µM 0 | GSK3A; 10 µM 0 | HER2; 10 µM 0 | INSRR; 10 µM 0

The results go on.

C/C=C1\C(=O)C[C@H]2[C@@H]3CCC4=CC(=O)CC[C@]4(C)[C@H]3CC[C@]12C [Guggulsterone]
inactive: EGFR; 10 µM 0 | EGFR_G719S; 10 µM 0 | EGFR_G719S_T790M; 10 µM 0 | EGFR_L718V; 10 µM 0 | EGFR_L858R; 10 µM 0 | EGFR_L861Q; 10 µM 0 | EGFR_T790M; 10 µM 0 | EPHA2; 10 µM 0 | ERBB3; 10 µM 0 | [1]; 10 µM 0 | ERN1; 10 µM 0 | FGFR1; 10 µM 0 | FGFR2; 10 µM 0 | FGR; 10 µM 0 | FLT3; 10 µM 0 | FYN; 10 µM 0 | GSK3A; 10 µM 0 | HER2; 10 µM 0 | INSRR; 10 µM 0

C/C=C1\C(=O)C[C@H]2[C@@H]3CCC4=CC(=O)CC[C@]4(C)[C@H]3CC[C@]12C [(Z)-Guggulsterone]
inactive: EGFR; 10 µM 0 | EGFR_G719S; 10 µM 0 | EGFR_G719S_T790M; 10 µM 0 | EGFR_L718V; 10 µM 0 | EGFR_L858R; 10 µM 0 | EGFR_L861Q; 10 µM 0 | EGFR_T790M; 10 µM 0 | EPHA2; 10 µM 0 | ERBB3; 10 µM 0 | [1]; 10 µM 0 | ERN1; 10 µM 0 | FGFR1; 10 µM 0 | FGFR2; 10 µM 0 | FGR; 10 µM 0 | FLT3; 10 µM 0 | FYN; 10 µM 0 | GSK3A; 10 µM 0 | HER2; 10 µM 0 | INSRR; 10 µM 0

C=CC(=O)Nc1cc(Nc2nccc(-c3cn(C)c4ccccc34)n2)c(OC)cc1N(C)CCN(C)C [Osimertinib]
inactive: EPHA2; 2.5 µM 0 | ERBB3; 2.5 µM 0 | [1]; 2.5 µM 0 | ERN1; 2.5 µM 0 | FGFR1; 2.5 µM 0 | FGFR2; 2.5 µM 0 | FGFR3; 2.5 µM 0 | FGR; 2.5 µM 0 | FLT3; 2.5 µM 0 | FYN; 2.5 µM 0 | GSK3A; 2.5 µM 0 | HER2; 2.5 µM 0 | INSRR; 2.5 µM 0

C[C@H](Nc1cc(-c2cnn(C)c2)cc(Nc2cnccn2)n1)c1ccc(F)cc1 [Ilginatinib]
inactive: EGFR; 2.5 µM 0 | EGFR_G719S; 2.5 µM 0 | EGFR_G719S_T790M; 2.5 µM 0 | EGFR_L718V; 2.5 µM 0 | EGFR_L858R; 2.5 µM 0 | EGFR_L861Q; 2.5 µM 0 | EGFR_T790M; 2.5 µM 0 | EPHA2; 2.5 µM 0 | ERBB3; 2.5 µM 0 | [1]; 2.5 µM 0 | ERN1; 2.5 µM 0 | FGFR1; 2.5 µM 0 | FGFR2; 2.5 µM 0 | FGFR3; 2.5 µM 0 | FGR; 2.5 µM 0 | FLT3; 2.5 µM 0 | FYN; 2.5 µM 0 | GSK3A; 2.5 µM 0 | HER2; 2.5 µM 0 | INSRR; 2.5 µM 0

CNc1ncc2cc(-c3ccc(-c4cccc(C)n4)cc3Cl)c(=O)n(C[C@H]3OC[C@H](N)CO3)c2n1 [G-5555 (hydrochloride)]
inactive: EGFR; 10 µM 0 | EGFR_G719S; 10 µM 0 | EGFR_G719S_T790M; 10 µM 0 | EGFR_L718V; 10 µM 0 | EGFR_L858R; 10 µM 0 | EGFR_L861Q; 10 µM 0 | EGFR_T790M; 10 µM 0 | EPHA2; 10 µM 0 | ERBB3; 10 µM 0 | [1]; 10 µM 0 | ERN1; 10 µM 0 | FGFR1; 10 µM 0 | FGFR2; 10 µM 0 | FGFR3; 10 µM 0 | FGR; 10 µM 0 | FLT3; 10 µM 0 | FYN; 10 µM 0 | GSK3A; 10 µM 0 | HER2; 10 µM 0 | INSRR; 10 µM 0

Cc1cccc(/C=N/Nc2cc(N3CCOCC3)nc(OCCc3ccccn3)n2)c1 [Apilimod (mesylate)]
inactive: EGFR; 10 µM 0 | EGFR_G719S; 10 µM 0 | EGFR_G719S_T790M; 10 µM 0 | EGFR_L718V; 10 µM 0 | EGFR_L858R; 10 µM 0 | EGFR_L861Q; 10 µM 0 | EGFR_T790M; 10 µM 0 | EPHA2; 10 µM 0 | ERBB3; 10 µM 0 | [1]; 10 µM 0 | ERN1; 10 µM 0 | FGFR1; 10 µM 0 | FGFR2; 10 µM 0 | FGFR3; 10 µM 0 | FGR; 10 µM 0 | FLT3; 10 µM 0 | FYN; 10 µM 0 | GSK3A; 10 µM 0 | HER2; 10 µM 0 | INSRR; 10 µM 0

Cc1nc2ccc(-n3c(-c4nonc4N)nc4cnccc43)cc2[nH]1
inactive: EGFR; 10 µM 0 | EGFR_G719S; 10 µM 0 | EGFR_G719S_T790M; 10 µM 0 | EGFR_L718V; 10 µM 0 | EGFR_L858R; 10 µM 0 | EGFR_L861Q; 10 µM 0 | EGFR_T790M; 10 µM 0 | EPHA2; 10 µM 0 | ERBB3; 10 µM 0 | [1]; 10 µM 0 | ERN1; 10 µM 0 | FGFR1; 10 µM 0 | FGFR2; 10 µM 0 | FGFR3; 10 µM 0 | FGR; 10 µM 0 | FLT3; 10 µM 0 | FYN; 10 µM 0 | GSK3A; 10 µM 0 | HER2; 10 µM 0 | INSRR; 10 µM 0

C=CC(=O)Nc1cc(Nc2nccc(-c3cn(C)c4ccccc34)n2)c(OC)cc1N(C)CCN(C)C [Osimertinib (dimesylate)]
active: HER2; 2.5 µM 1
inactive: EPHA2; 2.5 µM 0 | ERBB3; 2.5 µM 0 | [1]; 2.5 µM 0 | ERN1; 2.5 µM 0 | FGFR1; 2.5 µM 0 | FGFR2; 2.5 µM 0 | FGFR3; 2.5 µM 0 | FGR; 2.5 µM 0 | FLT3; 2.5 µM 0 | FYN; 2.5 µM 0 | GSK3A; 2.5 µM 0 | INSRR; 2.5 µM 0

CC(C)Oc1ccc(-c2nn([C@@H](C)c3oc4ccc(F)cc4c(=O)c3-c3cccc(F)c3)c3ncnc(N)c23)cc1F [Umbralisib]
inactive: EGFR; 2.5 µM 0 | EGFR_G719S; 2.5 µM 0 | EGFR_G719S_T790M; 2.5 µM 0 | EGFR_L718V; 2.5 µM 0 | EGFR_L858R; 2.5 µM 0 | EGFR_L861Q; 2.5 µM 0 | EGFR_T790M; 2.5 µM 0 | EPHA2; 2.5 µM 0 | ERBB3; 2.5 µM 0 | [1]; 2.5 µM 0 | ERN1; 2.5 µM 0 | FGFR1; 2.5 µM 0 | FGFR2; 2.5 µM 0 | FGFR3; 2.5 µM 0 | FGR; 2.5 µM 0 | FLT3; 2.5 µM 0 | FYN; 2.5 µM 0 | GSK3A; 2.5 µM 0 | HER2; 2.5 µM 0 | INSRR; 2.5 µM 0
